No constants are given. Whether binding was seen depends on the method and setting. In cells and extracts the contact can be indirect. Here binding means that the protein was enriched with, or labelled near, the bait; the list need not be complete.
T1: LAMP1-APEX2 (UniProt P11279)
T1 sequence: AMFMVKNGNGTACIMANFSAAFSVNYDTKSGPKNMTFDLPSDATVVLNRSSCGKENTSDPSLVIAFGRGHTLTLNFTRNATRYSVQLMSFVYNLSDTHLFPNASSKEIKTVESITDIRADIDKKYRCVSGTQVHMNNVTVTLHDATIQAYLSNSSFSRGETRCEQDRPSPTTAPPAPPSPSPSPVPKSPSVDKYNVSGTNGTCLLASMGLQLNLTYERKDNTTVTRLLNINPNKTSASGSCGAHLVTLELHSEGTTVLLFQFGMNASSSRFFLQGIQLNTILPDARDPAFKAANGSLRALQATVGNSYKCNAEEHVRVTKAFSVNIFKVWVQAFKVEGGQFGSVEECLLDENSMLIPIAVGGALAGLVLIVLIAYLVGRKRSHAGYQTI


Molecular target: T1, LAMP1-APEX2
Experiment: proximity labelling

| Binder | binding |
| --- | --- |
| VPS16 (protein, UniProt Q9H269 1-839) MDCYTANWNPLGDSAFYRKYELYSMDWDLKEELRDCLVAAAPYGGPIALLRNPWRKEKAASVRPVLDIYSASGMPLASLLWKSGPVVSLGWSAEEELLCVQEDGAVLVYGLHGDFRRHFSMGNEVLQNRVLDARIFHTEFGSGVAILTGAHRFTLSANVGDLKLRRMPEVPGLQSAPSCWTVLCQDRVAHILLAVGPDLYLLDHAACSAVTPPGLAPGVSSFLQMAVSFTYRHLALFTDTGYIWMGTASLKEKLCEFNCNIRAPPKQMVWCSRPRSKERAVVVAWERRLMVVGDAPESIQFVLDEDSYLVPELDGVRIFSRSTHEFLHEVPAASEEIFKIASMAPGALLLEAQKEYEKESQKADEYLREIQELGQLTQAVQQCIEAAGHEHQPDMQKSLLRAASFGKCFLDRFPPDSFVHMCQDLRVLNAVRDYHIGIPLTYSQYKQLTIQVLLDRLVLRRLYPLAIQICEYLRLPEVQGVSRILAHWACYKVQQKDVSDEDVARAINQKLGDTPGVSYSDIAARAYGCGRTELAIKLLEYEPRSGEQVPLLLKMKRSKLALSKAIESGDTDLVFTVLLHLKNELNRGDFFMTLRNQPMALSLYRQFCKHQELETLKDLYNQDDNHQELGSFHIRASYAAEERIEGRVAALQTAADAFYKAKNEFAAKATEDQMRLLRLQRRLEDELGGQFLDLSLHDTVTTLILGGHNKRAEQLARDFRIPDKRLWWLKLTALADLEDWEELEKFSKSKKSPIGYLPFVEICMKQHNKYEAKKYASRVGPEQKVKALLLVGDVAQAADVAIEHRNEAELSLVLSHCTGATDGATADKIQRARAQAQKK | binds |
| VPS50 (protein, UniProt Q96JG6 1-964) MQKIKSLMTRQGLKSPQESLSDLGAIESLRVPGKEEFRELREQPSDPQAEQELINSIEQVYFSVDSFDIVKYELEKLPPVLNLQELEAYRDKLKQQQAAVSKKVADLILEKQPAYVKELERVTSLQTGLQLAAVICTNGRRHLNIAKEGFTQASLGLLANQRKRQLLIGLLKSLRTIKTLQRTDVRLSEMLEEEDYPGAIQLCLECQKAASTFKHYSCISELNSKLQDTLEQIEEQLDVALSKICKNFDINHYTKVQQAYRLLGKTQTAMDQLHMHFTQAIHNTVFQVVLGYVELCAGNTDTKFQKLQYKDLCTHVTPDSYIPCLADLCKALWEVMLSYYRTMEWHEKHDNEDTASASEGSNMIGTEETNFDRGYIKKKLEHGLTRIWQDVQLKVKTYLLGTDLSIFKYDDFIFVLDIISRLMQVGEEFCGSKSEVLQESIRKQSVNYFKNYHRTRLDELRMFLENETWELCPVKSNFSILQLHEFKFMEQSRSPSVSPSKQPVSTSSKTVTLFEQYCSGGNPFEIQANHKDEETEDVLASNGYESDEQEKSAYQEYDSDSDVPEELKRDYVDEQTGDGPVKSVSRETLKSRKKSDYSLNKVNAPILTNTTLNVIRLVGKYMQMMNILKPIAFDVIHFMSQLFDYYLYAIYTFFGRNDSLESTGLGLSSSRLRTTLNRIQESLIDLEVSADPTATLTAAEERKEKVPSPHLSHLVVLTSGDTLYGLAERVVATESLVFLAEQFEFLQPHLDAVMPAVKKPFLQQFYSQTVSTASELRKPIYWIVAGKALDYEQMLLLMANVKWDVKEIMSQHNIYVDALLKEFEQFNRRLNEVSKRVRIPLPVSNILWEHCIRLANRTIVEGYANVKKCSNEGRALMQLDFQQFLMKLEKLTDIRPIPDKEFVETYIKAYYLTENDMERWIKEHREYSTKQLTNLVNVCLGSHINKKARQKLLAAIDDIDRPKR | binds |
| PIP4K2A (protein, UniProt P48426 1-406) MATPGNLGSSVLASKTKTKKKHFVAQKVKLFRASDPLLSVLMWGVNHSINELSHVQIPVMLMPDDFKAYSKIKVDNHLFNKENMPSHFKFKEYCPMVFRNLRERFGIDDQDFQNSLTRSAPLPNDSQARSGARFHTSYDKRYIIKTITSEDVAEMHNILKKYHQYIVECHGITLLPQFLGMYRLNVDGVEIYVIVTRNVFSHRLSVYRKYDLKGSTVAREASDKEKAKELPTLKDNDFINEGQKIYIDDNNKKVFLEKLKKDVEFLAQLKLMDYSLLVGIHDVERAEQEEVECEENDGEEEGESDGTHPVGTPPDSPGNTLNSSPPLAPGEFDPNIDVYGIKCHENSPRKEVYFMAIIDILTHYDAKKKAAHAAKTVKHGAGAEISTVNPEQYSKRFLDFIGHILT | binds |
| INPPL1 (protein, UniProt O15357 1-1258) MASACGAPGPGGALGSQAPSWYHRDLSRAAAEELLARAGRDGSFLVRDSESVAGAFALCVLYQKHVHTYRILPDGEDFLAVQTSQGVPVRRFQTLGELIGLYAQPNQGLVCALLLPVEGEREPDPPDDRDASDGEDEKPPLPPRSGSTSISAPTGPSSPLPAPETPTAPAAESAPNGLSTVSHDYLKGSYGLDLEAVRGGASHLPHLTRTLATSCRRLHSEVDKVLSGLEILSKVFDQQSSPMVTRLLQQQNLPQTGEQELESLVLKLSVLKDFLSGIQKKALKALQDMSSTAPPAPQPSTRKAKTIPVQAFEVKLDVTLGDLTKIGKSQKFTLSVDVEGGRLVLLRRQRDSQEDWTTFTHDRIRQLIKSQRVQNKLGVVFEKEKDRTQRKDFIFVSARKREAFCQLLQLMKNKHSKQDEPDMISVFIGTWNMGSVPPPKNVTSWFTSKGLGKTLDEVTVTIPHDIYVFGTQENSVGDREWLDLLRGGLKELTDLDYRPIAMQSLWNIKVAVLVKPEHENRISHVSTSSVKTGIANTLGNKGAVGVSFMFNGTSFGFVNCHLTSGNEKTARRNQNYLDILRLLSLGDRQLNAFDISLRFTHLFWFGDLNYRLDMDIQEILNYISRKEFEPLLRVDQLNLEREKHKVFLRFSEEEISFPPTYRYERGSRDTYAWHKQKPTGVRTNVPSWCDRILWKSYPETHIICNSYGCTDDIVTSDHSPVFGTFEVGVTSQFISKKGLSKTSDQAYIEFESIEAIVKTASRTKFFIEFYSTCLEEYKKSFENDAQSSDNINFLKVQWSSRQLPTLKPILADIEYLQDQHLLLTVKSMDGYESYGECVVALKSMIGSTAQQFLTFLSHRGEETGNIRGSMKVRVPTERLGTRERLYEWISIDKDEAGAKSKAPSVSRGSQEPRSGSRKPAFTEASCPLSRLFEEPEKPPPTGRPPAPPRAAPREEPLTPRLKPEGAPEPEGVAAPPPKNSFNNPAYYVLEGVPHQLLPPEPPSPARAPVPSATKNKVAITVPAPQLGHHRHPRVGEGSSSDEESGGTLPPPDFPPPPLPDSAIFLPPSLDPLPGPVVRGRGGAEARGPPPPKAHPRPPLPPGPSPASTFLGEVASGDDRSCSVLQMAKTLSEVDYAPAGPARSALLPGPLELQPPRGLPSDYGRPLSFPPPRIRESIQEDLAEEAPCLQGGRASGLGEAGMSAWLRAIGLERYEEGLVHNGWDDLEFLSDITEEDLEEAGVQDPAHKRLLLDTLQLSK | binds |
| INPP5F (protein, UniProt Q9Y2H2 1-1132) MELFQAKDHYILQQGERALWCSRRDGGLQLRPATDLLLAWNPICLGLVEGVIGKIQLHSDLPWWLILIRQKALVGKLPGDHEVCKVTKIAVLSLSEMEPQDLELELCKKHHFGINKPEKIIPSPDDSKFLLKTFTHIKSNVSAPNKKKVKESKEKEKLERRLLEELLKMFMDSESFYYSLTYDLTNSVQRQSTGERDGRPLWQKVDDRFFWNKYMIQDLTEIGTPDVDFWIIPMIQGFVQIEELVVNYTESSDDEKSSPETPPQESTCVDDIHPRFLVALISRRSRHRAGMRYKRRGVDKNGNVANYVETEQLIHVHNHTLSFVQTRGSVPVFWSQVGYRYNPRPRLDRSEKETVAYFCAHFEEQLNIYKKQVIINLVDQAGREKIIGDAYLKQVLLFNNSHLTYVSFDFHEHCRGMKFENVQTLTDAIYDIILDMKWCWVDEAGVICKQEGIFRVNCMDCLDRTNVVQAAIARVVMEQQLKKLGVMPPEQPLPVKCNRIYQIMWANNGDSISRQYAGTAALKGDFTRTGERKLAGVMKDGVNSANRYYLNRFKDAYRQAVIDLMQGIPVTEDLYSIFTKEKEHEALHKENQRSHQELISQLLQSYMKLLLPDDEKFHGGWALIDCDPSLIDATHRDVDVLLLLSNSAYYVAYYDDEVDKVNQYQRLSLENLEKIEIGPEPTLFGKPKFSCMRLHYRYKEASGYFHTLRAVMRNPEEDGKDTLQCIAEMLQITKQAMGSDLPIIEKKLERKSSKPHEDIIGIRSQNQGSLAQGKNFLMSKFSSLNQKVKQTKSNVNIGNLRKLGNFTKPEMKVNFLKPNLKVNLWKSDSSLETMENTGVMDKVQAESDGDMSSDNDSYHSDEFLTNSKSDEDRQLANSLESVGPIDYVLPSCGIIASAPRLGSRSQSLSSTDSSVHAPSEITVAHGSGLGKGQESPLKKSPSAGDVHILTGFAKPMDIYCHRFVQDAQNKVTHLSETRSVSQQASQERNQMTNQVSNETQSESTEQTPSRPSQLDVSLSATGPQFLSVEPAHSVASQKTPTSASSMLELETGLHVTPSPSESSSSRAVSPFAKIRSSMVQVASITQAGLTHGINFAVSKVQKSPPEPEIINQVQQNELKKMFIQCQTRIIQI | binds |
| PLCG2 (protein, UniProt P16885 1-1265) MSTTVNVDSLAEYEKSQIKRALELGTVMTVFSFRKSTPERRTVQVIMETRQVAWSKTADKIEGFLDIMEIKEIRPGKNSKDFERAKAVRQKEDCCFTILYGTQFVLSTLSLAADSKEDAVNWLSGLKILHQEAMNASTPTIIESWLRKQIYSVDQTRRNSISLRELKTILPLINFKVSSAKFLKDKFVEIGAHKDELSFEQFHLFYKKLMFEQQKSILDEFKKDSSVFILGNTDRPDASAVYLHDFQRFLIHEQQEHWAQDLNKVRERMTKFIDDTMRETAEPFLFVDEFLTYLFSRENSIWDEKYDAVDMQDMNNPLSHYWISSSHNTYLTGDQLRSESSPEAYIRCLRMGCRCIELDCWDGPDGKPVIYHGWTRTTKIKFDDVVQAIKDHAFVTSSFPVILSIEEHCSVEQQRHMAKAFKEVFGDLLLTKPTEASADQLPSPSQLREKIIIKHKKLGPRGDVDVNMEDKKDEHKQQGELYMWDSIDQKWTRHYCAIADAKLSFSDDIEQTMEEEVPQDIPPTELHFGEKWFHKKVEKRTSAEKLLQEYCMETGGKDGTFLVRESETFPNDYTLSFWRSGRVQHCRIRSTMEGGTLKYYLTDNLTFSSIYALIQHYRETHLRCAEFELRLTDPVPNPNPHESKPWYYDSLSRGEAEDMLMRIPRDGAFLIRKREGSDSYAITFRARGKVKHCRINRDGRHFVLGTSAYFESLVELVSYYEKHSLYRKMRLRYPVTPELLERYNMERDINSLYDVSRMYVDPSEINPSMPQRTVKALYDYKAKRSDELSFCRGALIHNVSKEPGGWWKGDYGTRIQQYFPSNYVEDISTADFEELEKQIIEDNPLGSLCRGILDLNTYNVVKAPQGKNQKSFVFILEPKQQGDPPVEFATDRVEELFEWFQSIREITWKIDTKENNMKYWEKNQSIAIELSDLVVYCKPTSKTKDNLENPDFREIRSFVETKADSIIRQKPVDLLKYNQKGLTRVYPKGQRVDSSNYDPFRLWLCGSQMVALNFQTADKYMQMNHALFSLNGRTGYVLQPESMRTEKYDPMPPESQRKILMTLTVKVLGARHLPKLGRSIACPFVEVEICGAEYDNNKFKTTVVNDNGLSPIWAPTQEKVTFEIYDPNLAFLRFVVYEEDMFSDPNFLAHATYPIKAVKSGFRSVPLKNGYSEDIELASLLVFCEMRPVLESEEELYSSCRQLRRRQEELNNQLFLYDTHQNLRNANRDALVKEFSVNENQLQLYQEKCNKRLREKRVSNSKFYS | binds |

From paper doi:10.1101/2022.12.14.520480
